Reference: patent publication EP0838474B1, “PEPTIDE THAT INHIBITS BLOOD TRIGLYCERIDE LEVEL RISE AND BLOOD TRIGLYCERIDE LEVEL RISE INHIBITOR CONTAINING SAID PEPTIDE AS ACTIVE INGREDIENT” (MG PHARMA INC., priority 1995, dated 1997)
Not every detail of the peptide structures is certain; ends, links or a residue may be inferred. Residues, ends and D or L forms follow the SMILES beside them.

Tested on: TG level in blood
Experiment: Serum TG elevation inhibiting action at the time of in vivo lipid loading (olive oil)
Set-up: species or system albino mice
Details: blood collected after 3 hours
Description: Serum TG elevation inhibiting action at the time of in vivo lipid loading was examined on the three peptides of the invention inhibiting elevations of TG levels in blood (i.e., the peptide having the amino acid sequence of SEQ ID NO: 1 and the peptides Val-Thr-Leu and Val-Tyr-Pro synthesized by the method described in Example 4). Healthy albino mice (5-10 weeks old; body weight: about 20-30 g) were used in this experiment. To each mouse, 250 mg of olive oil and an aqueous solution of the above peptide were administered orally. Three hours thereafter, blood was collected under anesthesia with Nembutal. After separation of the blood, the TG level in blood was determined.

**Q.** For `CC(C)[C@H](N)C(=O)N[C@@H](Cc1ccc(O)cc1)C(=O)N1CCC[C@H]1C(=O)O` [Val-Tyr-Pro] (H-Val-Tyr-Pro-OH), which “Ratio of Increase in Blood TG Levels (%)” value (dose 0.1 mg/mouse oral with 250 mg olive oil) is on record?
**A.** Its value is 39%.

**Q.** What about the “Ratio of Increase in Blood TG Levels (%)” value (dose 0.2 mg/mouse oral with 250 mg olive oil) of the same molecule?
**A.** Its value is 50%.

**Q.** What about the “Ratio of Increase in Blood TG Levels (%)” value (dose 1.0 mg/mouse oral with 250 mg olive oil) of the same molecule?
**A.** Its value is 50%.

**Q.** What about the “Ratio of Increase in Blood TG Levels (%)” value (dose 2.5 mg/mouse oral with 250 mg olive oil) of the same molecule?
**A.** Its value is 69%.

**Q.** And the “Ratio of Increase in Blood TG Levels (%)” value (dose 5.0 mg/mouse oral with 250 mg olive oil)?
**A.** Its value is 79%.
